Assay results as given in PMC4882601, “Binding of Human Fibrinogen to MRP Enhances Streptococcus suis Survival in Host Blood in a αXβ2 Integrin-dependent Manner” (Scientific Reports, 2016).

Amino acid sequences for entries named in this document (tags omitted). A change or cut given only in a name is not applied to a line headed by its entry.
UniProt P02671: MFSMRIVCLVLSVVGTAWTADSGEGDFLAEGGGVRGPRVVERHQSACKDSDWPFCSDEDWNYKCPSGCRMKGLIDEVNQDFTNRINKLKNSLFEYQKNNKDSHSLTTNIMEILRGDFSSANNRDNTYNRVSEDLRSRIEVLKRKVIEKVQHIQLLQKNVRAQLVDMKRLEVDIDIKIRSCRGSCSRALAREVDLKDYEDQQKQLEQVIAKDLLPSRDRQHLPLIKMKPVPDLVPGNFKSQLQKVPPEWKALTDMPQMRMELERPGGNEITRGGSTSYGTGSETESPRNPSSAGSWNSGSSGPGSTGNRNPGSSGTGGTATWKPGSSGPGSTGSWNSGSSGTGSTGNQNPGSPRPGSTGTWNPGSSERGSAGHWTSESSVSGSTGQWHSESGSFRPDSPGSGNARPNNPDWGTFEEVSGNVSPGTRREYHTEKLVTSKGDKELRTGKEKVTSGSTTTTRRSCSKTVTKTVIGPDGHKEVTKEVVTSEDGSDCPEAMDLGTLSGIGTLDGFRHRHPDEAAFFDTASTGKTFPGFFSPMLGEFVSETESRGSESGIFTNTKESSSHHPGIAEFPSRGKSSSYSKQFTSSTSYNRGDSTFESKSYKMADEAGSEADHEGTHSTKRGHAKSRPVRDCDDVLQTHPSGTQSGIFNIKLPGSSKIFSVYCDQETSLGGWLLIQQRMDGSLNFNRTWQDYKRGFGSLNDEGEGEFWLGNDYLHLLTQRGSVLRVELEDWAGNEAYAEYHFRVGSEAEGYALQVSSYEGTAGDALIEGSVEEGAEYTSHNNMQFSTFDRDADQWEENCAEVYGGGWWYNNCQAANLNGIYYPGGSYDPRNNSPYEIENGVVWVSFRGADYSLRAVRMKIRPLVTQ

Target: human fibrinogen Aα chain (human) (UniProt P02671)
Assay: far-Western, overlay or dot blot; purified hFg separated by reducing SDS-PAGE, transferred to PVDF, probed with biotinylated hisMRP proteins (20 μg/ml), detected with HRP-streptavidin; both purified

B1: hisMRP-N (a.a. 48-721, the N-terminus of muramidase-released protein) (domain or fragment)
chain: DETVASSEPTIASSVAPASTEAVAEEAEKTNAENTSAVATTSTEVEKAKAVLEQVTSESPLLAGLGQKELAKTEDATLAKAIEDAQTKLAAAKAILADSEATVEQVEAQVAAVKVANEALGNELQKYTVDGLLTAALDTVAPDTTASTLKVGDGEGTLLDSTTTATPSMAEPNGAAIAPHTLRTQDGIKATSEPNWYTFESYDLYSYNKNMASSTYKGAEVDAYIRYSLDNDSSTTAVLAELVSRTTGDVLEKYTIEPGESVTFSHPTKVNANNSNITVTYDTSLASANTPGALKFSANDDVYSTIIVPAYQINTTRYVTESGKVLATYGLQTIAGQVVTPSSVRVFTGYDYVATTTKAVQGPYPKGTVYLAGTVQKDTVQYKVIREIVENDQAVLKFYYLDPTYKGEVDWRGTDTTGFIELLTTSPTTYKVGTIYDYNINSKITAPFTIDPTKNVMVFKESEQNEQGSKYRVIAQWSGDETTKGIYGKIYIATQVWTTKLGTNEWGWFDYSDDQAGIKFNNKGFWPAGVQNTLRNATPATAVETTYIYKESSKYGDVIVEYYDTDGKQIVNSVVDTPKSALGTEYNTDVDRRPASLVAADGTVYFYKEVKSDSAKTTGTVVAGTTTVKYVYEKAGSVNVNFVDINGKVIKAPVSDEKDAKPGYNYDTDLDQKL
modifications: biotin (in the far-Western and on the BLI biosensors)
notes: Muramidase-released protein (MRP) of Streptococcus suis serotype 2 strain 05ZYH33, gene SSU05_0753, residues 48-721; also called hisMRP-N_(48-721); source: cloned into pET-28a, expressed, purified by Ni-chelating chromatography
**Q.** Which binding does the source give for B1 here?
**A.** Its binding is “binds”.

B2: hisMRP-N2 (a.a. 283-721 of muramidase-released protein, mainly consisting of β-sheets) (domain or fragment, UniProt P32653 283-721)
chain: TAVLAELVSRTTGDVLEKYTIEPGESVTFSHPTKVNANNSNITVTYDTSLASANTPGALKFSANDDVYSTIIVPAYQINTTRYVTESGKVLATYGLQTIAGQVVTPSSVRVFTGYDYVATTTKAVQGPYPKGTVYLAGTVQKDTVQYKVIREIVENDQAVLKFYYLDPTYKGEVDWRGTDTTGFIELLTTSPTTYKVGTIYDYNINSKITAPFTIDPTKNVMVFKESEQNEQGSKYRVIAQWSGDETTKGIYGKIYIATQVWTTKLGTNEWGWFDYSDDQAGIKFNNKGFWPAGVQNTLRNATPATAVETTYIYKESSKYGDVIVEYYDTDGKQIVNSVVDTPKSALGTEYNTDVDRRPASLVAADGTVYFYKEVKSDSAKTTGTVVAGTTTVKYVYEKAGSVNVNFVDINGKVIKAPVSDEKDAKPGYNYDTDLDQKL
modifications: biotin (in the far-Western and on the BLI biosensors)
**Q.** B2 was tested. Which binding did it give?
**A.** The binding was “binds”.

Results are given in words; binding and its absence hold for the method and conditions named. Binding calls can cover weak binding; strength is not graded here. Where a sequence is shown, tags or fusion partners need not be part of it.
